From PMC3885651
Results are given in words; binding and its absence hold for the method and conditions named. Some entries that bind do so weakly or less than the wild type. Sequences can lack the tags named with a protein.

Sequences of proteins named here, by UniProt entry; tags and fusion partners are left off.
UniProt Q9SV55: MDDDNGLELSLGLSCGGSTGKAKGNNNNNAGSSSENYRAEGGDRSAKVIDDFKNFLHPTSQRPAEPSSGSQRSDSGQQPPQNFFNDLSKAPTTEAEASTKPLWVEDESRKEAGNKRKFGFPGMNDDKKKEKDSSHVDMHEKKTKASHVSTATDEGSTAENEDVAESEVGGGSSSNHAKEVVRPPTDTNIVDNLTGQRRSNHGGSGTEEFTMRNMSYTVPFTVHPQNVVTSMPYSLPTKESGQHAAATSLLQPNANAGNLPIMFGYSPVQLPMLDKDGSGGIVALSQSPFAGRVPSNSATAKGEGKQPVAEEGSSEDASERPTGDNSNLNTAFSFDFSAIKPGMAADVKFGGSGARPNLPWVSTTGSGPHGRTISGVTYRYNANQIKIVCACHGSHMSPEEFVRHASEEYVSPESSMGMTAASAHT
UniProt Q7XA73: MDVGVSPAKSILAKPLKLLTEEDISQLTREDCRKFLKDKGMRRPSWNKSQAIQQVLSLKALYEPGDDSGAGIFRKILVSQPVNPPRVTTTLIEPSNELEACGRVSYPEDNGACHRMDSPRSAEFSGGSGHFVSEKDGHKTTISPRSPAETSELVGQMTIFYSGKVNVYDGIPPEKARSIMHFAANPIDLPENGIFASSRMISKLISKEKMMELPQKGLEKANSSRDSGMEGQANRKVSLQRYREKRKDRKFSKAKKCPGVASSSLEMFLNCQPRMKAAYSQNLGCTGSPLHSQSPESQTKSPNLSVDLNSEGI
UniProt Q8GY55: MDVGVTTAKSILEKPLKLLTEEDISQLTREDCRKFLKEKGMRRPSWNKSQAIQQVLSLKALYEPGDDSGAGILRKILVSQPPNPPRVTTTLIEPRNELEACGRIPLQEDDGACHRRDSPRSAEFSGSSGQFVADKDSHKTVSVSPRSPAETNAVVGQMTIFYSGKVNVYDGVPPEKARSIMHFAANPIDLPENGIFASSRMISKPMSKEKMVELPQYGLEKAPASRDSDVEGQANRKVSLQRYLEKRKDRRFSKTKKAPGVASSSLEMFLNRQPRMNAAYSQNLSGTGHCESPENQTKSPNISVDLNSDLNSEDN

Key:
Experiment in all cases: two-hybrid; S. cerevisiae PJ69-4A co-transformed with pGADT7 and pGBKT7 fusions; growth on SD lacking Leu, Trp and His (-3) against control (-2); 2 days at 30°C; empty vectors as controls
[1] = biological target: NOVEL INTERACTOR OF JAZ (NINJA), yeast two-hybrid fusion (Arabidopsis thaliana) (UniProt Q9SV55)
[2] = biological target: PEAPOD1 (PPD1), yeast two-hybrid fusion (Arabidopsis thaliana) (UniProt Q7XA73)
[3] = biological target: PEAPOD2 (PPD2), yeast two-hybrid fusion (Arabidopsis thaliana) (UniProt Q8GY55)

Measured: binding

B1: TIFY8 (GAL4-AD fusion) (protein, UniProt Q84MB2 1-361)
chain: MMVNHNNGQRPTDIDSRLRQTEQDKLLFHDFLGSKNPTLASTSMADHRLPPDNKAAKAAMTPSTASASSAGGLGGLSSTSDLVERHSGGGNHLDGIQLFGPRSDVSGSIMSNRFSGNKRSNSDSHFTTQEHPETLHWSKLLRNGPGSFSMNVNPLANQPPRGGGQISHLLHQLSTSRFKDENVGPSVIAQTAADEGSRTGMKGPGILSSFTMPNSSKLESFAPSNTGNRKDLASSTKQMTIFYGGQAHVFDDVHPNKADVIMALAGSSGGSWSTGLSHKPKSKNNTSDGPYKLGQMYEGGSSKETPQMPPEFRARPSHQPTSSACHRIFTQPGREHQGSIISRGRDIRDPVHRSDPEKEAT
binds: [1] | [2] | [3]
